Reference: publication PMC6910018
Results are given in words; binding and its absence hold for the method and conditions named. Binding seen in cells or lysates may run through a third protein. Some results given as binding are weak or reduced against the parent protein; the word gives no strength.

The chains behind the UniProt entries cited, without tags or fusion partners. Residues count along the entry.
UniProt Q8K596, residues 21-921: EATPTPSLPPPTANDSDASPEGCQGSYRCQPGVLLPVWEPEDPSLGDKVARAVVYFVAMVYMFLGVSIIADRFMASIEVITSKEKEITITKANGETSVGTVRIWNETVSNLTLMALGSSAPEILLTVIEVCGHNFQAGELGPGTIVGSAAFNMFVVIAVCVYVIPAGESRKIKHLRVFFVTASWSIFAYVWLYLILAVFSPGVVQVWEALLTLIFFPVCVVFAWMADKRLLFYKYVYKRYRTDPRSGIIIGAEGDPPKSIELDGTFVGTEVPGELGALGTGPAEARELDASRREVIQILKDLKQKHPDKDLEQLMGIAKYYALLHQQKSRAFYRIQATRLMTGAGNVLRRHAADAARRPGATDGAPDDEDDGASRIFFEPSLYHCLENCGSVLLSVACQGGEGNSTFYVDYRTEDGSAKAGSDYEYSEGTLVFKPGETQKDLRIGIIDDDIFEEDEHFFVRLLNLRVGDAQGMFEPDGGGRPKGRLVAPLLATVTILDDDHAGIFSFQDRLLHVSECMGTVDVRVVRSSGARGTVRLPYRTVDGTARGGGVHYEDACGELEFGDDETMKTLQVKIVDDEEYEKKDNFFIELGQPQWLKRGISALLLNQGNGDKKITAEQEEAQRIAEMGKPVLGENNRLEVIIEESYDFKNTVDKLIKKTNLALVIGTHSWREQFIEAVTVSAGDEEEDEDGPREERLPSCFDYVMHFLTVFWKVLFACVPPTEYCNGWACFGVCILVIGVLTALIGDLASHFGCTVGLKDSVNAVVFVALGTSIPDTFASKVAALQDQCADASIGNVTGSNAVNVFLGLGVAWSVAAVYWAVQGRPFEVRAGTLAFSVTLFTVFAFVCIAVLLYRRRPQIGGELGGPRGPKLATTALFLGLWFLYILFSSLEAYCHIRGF
UniProt S4R2P9, residues 31-928: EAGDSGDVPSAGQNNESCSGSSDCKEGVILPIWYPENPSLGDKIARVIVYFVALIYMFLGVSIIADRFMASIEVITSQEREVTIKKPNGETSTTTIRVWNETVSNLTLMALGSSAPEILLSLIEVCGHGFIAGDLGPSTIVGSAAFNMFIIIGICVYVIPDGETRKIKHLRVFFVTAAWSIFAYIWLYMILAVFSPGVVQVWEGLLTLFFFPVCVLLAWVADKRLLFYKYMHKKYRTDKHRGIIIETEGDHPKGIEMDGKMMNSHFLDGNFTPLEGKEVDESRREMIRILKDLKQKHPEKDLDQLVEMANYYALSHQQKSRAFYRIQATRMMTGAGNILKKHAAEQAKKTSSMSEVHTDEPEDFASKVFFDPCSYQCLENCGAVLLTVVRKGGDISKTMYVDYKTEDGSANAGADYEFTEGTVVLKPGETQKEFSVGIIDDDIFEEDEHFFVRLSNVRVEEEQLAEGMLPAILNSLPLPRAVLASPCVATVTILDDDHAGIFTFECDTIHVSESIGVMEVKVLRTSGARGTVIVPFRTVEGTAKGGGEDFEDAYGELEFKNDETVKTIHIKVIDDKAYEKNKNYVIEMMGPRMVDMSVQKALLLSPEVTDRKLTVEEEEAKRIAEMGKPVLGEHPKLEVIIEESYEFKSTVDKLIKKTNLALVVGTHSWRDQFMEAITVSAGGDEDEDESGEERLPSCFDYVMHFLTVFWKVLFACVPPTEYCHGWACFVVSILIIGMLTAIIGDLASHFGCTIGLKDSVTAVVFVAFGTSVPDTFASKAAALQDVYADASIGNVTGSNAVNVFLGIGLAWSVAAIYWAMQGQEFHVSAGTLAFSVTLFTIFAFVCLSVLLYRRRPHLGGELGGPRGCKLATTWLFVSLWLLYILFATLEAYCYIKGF
UniProt Q9EPK8: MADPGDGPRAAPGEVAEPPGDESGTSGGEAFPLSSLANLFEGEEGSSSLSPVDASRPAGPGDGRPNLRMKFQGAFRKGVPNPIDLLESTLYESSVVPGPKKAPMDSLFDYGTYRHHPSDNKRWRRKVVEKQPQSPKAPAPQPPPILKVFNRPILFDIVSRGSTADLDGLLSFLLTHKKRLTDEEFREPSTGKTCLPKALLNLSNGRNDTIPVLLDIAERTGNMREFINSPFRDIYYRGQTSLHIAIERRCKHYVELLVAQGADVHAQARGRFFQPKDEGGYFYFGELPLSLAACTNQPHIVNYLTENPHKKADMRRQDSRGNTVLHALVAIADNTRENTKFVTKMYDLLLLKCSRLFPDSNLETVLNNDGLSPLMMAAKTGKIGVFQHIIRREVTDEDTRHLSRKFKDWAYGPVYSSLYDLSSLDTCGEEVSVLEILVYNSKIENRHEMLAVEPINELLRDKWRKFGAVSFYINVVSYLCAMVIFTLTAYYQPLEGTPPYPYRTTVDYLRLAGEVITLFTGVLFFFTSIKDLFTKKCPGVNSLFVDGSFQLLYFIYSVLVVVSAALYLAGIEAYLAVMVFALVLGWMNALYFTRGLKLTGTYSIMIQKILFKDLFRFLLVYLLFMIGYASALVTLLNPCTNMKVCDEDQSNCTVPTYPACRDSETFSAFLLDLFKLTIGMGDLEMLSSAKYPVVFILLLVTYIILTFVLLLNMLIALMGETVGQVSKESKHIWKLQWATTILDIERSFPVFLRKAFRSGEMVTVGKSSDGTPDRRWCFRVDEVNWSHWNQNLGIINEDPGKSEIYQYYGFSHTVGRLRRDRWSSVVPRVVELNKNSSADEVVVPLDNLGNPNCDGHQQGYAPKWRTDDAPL
UniProt P70414, residues 33-970: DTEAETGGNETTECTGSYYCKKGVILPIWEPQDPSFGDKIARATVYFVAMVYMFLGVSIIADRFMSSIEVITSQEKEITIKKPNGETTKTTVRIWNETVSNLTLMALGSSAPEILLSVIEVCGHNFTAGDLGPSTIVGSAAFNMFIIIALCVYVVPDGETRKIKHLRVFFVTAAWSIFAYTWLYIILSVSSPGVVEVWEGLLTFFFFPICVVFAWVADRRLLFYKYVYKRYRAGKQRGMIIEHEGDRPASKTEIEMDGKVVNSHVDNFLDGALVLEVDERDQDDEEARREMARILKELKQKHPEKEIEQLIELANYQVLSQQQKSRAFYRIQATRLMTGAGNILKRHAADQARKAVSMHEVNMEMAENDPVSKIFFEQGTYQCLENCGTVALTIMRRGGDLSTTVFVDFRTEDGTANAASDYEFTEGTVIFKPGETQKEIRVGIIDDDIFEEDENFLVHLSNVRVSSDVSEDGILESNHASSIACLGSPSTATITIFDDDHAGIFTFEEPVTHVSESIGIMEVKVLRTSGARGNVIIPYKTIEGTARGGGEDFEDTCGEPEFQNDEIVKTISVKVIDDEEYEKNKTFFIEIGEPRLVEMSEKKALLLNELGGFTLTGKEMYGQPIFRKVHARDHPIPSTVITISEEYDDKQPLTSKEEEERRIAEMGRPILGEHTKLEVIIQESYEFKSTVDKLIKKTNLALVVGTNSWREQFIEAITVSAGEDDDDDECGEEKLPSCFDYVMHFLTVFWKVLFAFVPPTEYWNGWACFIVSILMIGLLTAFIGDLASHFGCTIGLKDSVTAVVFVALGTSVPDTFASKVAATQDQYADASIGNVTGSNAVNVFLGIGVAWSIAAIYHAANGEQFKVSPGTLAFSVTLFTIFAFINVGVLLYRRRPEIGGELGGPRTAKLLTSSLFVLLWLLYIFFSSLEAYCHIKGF
UniProt P11881: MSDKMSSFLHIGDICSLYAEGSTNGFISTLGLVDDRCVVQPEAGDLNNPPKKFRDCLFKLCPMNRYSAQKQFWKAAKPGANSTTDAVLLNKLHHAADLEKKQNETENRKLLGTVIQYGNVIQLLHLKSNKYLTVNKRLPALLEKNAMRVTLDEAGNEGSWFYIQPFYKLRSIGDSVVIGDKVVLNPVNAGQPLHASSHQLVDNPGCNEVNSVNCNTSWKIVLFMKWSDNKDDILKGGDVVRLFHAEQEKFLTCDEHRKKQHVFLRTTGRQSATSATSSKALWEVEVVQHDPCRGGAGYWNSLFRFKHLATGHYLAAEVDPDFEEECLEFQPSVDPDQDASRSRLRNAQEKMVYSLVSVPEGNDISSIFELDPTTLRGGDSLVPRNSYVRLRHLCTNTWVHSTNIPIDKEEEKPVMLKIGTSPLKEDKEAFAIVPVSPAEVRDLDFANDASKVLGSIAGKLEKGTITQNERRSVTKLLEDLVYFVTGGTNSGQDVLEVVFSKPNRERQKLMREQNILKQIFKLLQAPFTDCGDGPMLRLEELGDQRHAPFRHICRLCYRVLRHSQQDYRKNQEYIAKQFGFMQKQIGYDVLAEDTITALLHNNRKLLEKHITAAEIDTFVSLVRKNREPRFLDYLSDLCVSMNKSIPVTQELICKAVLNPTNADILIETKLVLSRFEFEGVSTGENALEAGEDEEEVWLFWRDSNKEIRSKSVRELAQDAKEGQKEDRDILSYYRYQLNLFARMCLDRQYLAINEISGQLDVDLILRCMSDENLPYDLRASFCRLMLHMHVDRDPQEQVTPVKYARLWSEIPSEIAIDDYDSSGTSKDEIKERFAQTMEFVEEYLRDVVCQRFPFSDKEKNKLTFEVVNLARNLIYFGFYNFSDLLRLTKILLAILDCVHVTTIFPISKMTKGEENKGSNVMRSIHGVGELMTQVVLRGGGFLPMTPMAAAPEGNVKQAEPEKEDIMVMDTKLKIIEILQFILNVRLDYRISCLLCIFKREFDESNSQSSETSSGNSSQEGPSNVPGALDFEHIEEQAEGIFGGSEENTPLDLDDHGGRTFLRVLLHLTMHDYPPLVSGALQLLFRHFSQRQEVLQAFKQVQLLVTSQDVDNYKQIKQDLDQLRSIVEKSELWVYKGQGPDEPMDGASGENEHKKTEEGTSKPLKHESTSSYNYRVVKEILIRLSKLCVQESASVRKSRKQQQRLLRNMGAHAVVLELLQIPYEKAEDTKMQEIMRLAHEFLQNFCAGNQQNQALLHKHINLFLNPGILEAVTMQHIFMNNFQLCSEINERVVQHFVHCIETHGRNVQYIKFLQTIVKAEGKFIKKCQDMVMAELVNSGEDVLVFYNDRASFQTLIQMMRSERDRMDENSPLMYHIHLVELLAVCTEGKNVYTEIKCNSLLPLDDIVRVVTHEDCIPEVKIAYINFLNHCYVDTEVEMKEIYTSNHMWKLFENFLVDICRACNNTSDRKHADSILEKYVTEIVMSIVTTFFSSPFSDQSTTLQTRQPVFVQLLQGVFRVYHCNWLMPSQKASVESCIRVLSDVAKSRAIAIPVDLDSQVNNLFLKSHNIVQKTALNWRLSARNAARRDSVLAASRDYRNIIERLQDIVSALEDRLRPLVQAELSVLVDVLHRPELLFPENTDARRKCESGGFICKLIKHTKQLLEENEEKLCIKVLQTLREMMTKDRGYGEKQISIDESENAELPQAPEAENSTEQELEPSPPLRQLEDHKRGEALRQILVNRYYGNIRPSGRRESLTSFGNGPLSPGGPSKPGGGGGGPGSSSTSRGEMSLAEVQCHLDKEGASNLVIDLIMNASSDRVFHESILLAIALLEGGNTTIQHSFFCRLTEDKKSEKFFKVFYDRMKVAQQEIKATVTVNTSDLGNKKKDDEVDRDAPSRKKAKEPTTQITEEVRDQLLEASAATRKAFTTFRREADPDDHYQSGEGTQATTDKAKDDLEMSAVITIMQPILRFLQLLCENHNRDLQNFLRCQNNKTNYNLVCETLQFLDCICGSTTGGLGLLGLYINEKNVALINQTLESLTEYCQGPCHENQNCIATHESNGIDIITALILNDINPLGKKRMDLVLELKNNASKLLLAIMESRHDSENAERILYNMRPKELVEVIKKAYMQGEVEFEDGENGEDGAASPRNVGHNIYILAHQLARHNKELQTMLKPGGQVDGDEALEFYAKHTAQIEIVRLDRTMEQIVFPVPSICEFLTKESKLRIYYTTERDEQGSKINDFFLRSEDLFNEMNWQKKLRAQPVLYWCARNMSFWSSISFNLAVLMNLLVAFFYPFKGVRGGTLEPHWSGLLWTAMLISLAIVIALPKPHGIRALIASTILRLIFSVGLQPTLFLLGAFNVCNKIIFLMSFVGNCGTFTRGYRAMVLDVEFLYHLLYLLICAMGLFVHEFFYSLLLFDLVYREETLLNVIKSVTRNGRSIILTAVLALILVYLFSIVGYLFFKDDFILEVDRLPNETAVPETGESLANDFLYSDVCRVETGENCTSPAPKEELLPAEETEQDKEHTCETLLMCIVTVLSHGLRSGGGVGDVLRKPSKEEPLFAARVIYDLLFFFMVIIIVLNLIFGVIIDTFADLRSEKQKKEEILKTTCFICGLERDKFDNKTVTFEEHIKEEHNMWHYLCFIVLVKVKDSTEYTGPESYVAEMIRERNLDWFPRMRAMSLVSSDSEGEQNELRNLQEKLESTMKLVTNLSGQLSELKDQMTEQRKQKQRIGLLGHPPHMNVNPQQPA

Experiments:
Assay in all cases: co-IP; endogenous proteins of mouse tracheal smooth muscle lysate (1% Nonidet P-40, 150 mM NaCl, 20 mM Tris-HCl pH 8.0); 800 ug protein with 5 ug antibody or preimmune IgG overnight at 4 C, protein A agarose, washed with PBS, immunoblot
[1] = target: Na+/Ca2+ exchanger 2 (mouse (endogenous in tracheal smooth muscle)) (UniProt Q8K596)
[2] = target: Na+/Ca2+ exchanger 3 (mouse (endogenous in tracheal smooth muscle)) (UniProt S4R2P9)
[3] = target: Transient receptor potential vanilloid 4 (mouse (endogenous in tracheal smooth muscle)) (UniProt Q9EPK8)
[4] = target: Na+/Ca2+ exchanger 1 (mouse (endogenous in tracheal smooth muscle)) (UniProt P70414)
[5] = target: IP3 receptor 1 (inositol 1,4,5-trisphosphate receptor subtype 1) (mouse (endogenous in tracheal smooth muscle)) (UniProt P11881)

For “IP3 receptor 1 (inositol 1,4,5-trisphosphate receptor subtype 1) (from UniProt P11881 1-2749)”, which binding [1] is on record?
Its binding is “binds”.

And the binding [2]?
The binding was “binds”.

And the binding [3]?
The binding was “binds”.

What about the binding [4] of the same substance?
The binding was “binds”.

Which binding [5] does the source give for “Transient receptor potential vanilloid 4 (from UniProt Q9EPK8 1-871)” here?
Its binding is “binds”.

What about the binding [1] of the same substance?
The binding was “binds”.

And the binding [2]?
The binding was “binds”.

And the binding [4]?
The binding was “binds”.

Which results are given for “Na+/Ca2+ exchanger 2 (from UniProt Q8K596 21-921)”?
binding [5]: binds; binding [3]: binds

For “Na+/Ca2+ exchanger 3 (from UniProt S4R2P9 31-928)”, which binding [5] is on record?
Its binding is “binds”.

What about the binding [3] of the same substance?
The binding was “binds”.

How did the binding [5] turn out when “Na+/Ca2+ exchanger 1 (from UniProt P70414 33-970)” was run?
The binding was “binds”.

What about the binding [3] of the same substance?
The binding was “binds”.
